# In all, about 53,000 sequences went through this assay and about 3,700 (7%) were called active.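 The calls were made as follows: active = gene knockdowns whose robust z-score for IL-1 alpha signal is at least 2 or at most -2, so actives lie on both sides; inactive = the rest.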 The list shows a part of the results.
# Assay: Components of the Cytosolic LPS Sensing Pathway: Gene Identification via Genome-wide siRNA Screen;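 also: robust z of the log signal after scaling to non-targeting control siRNA wells of the plate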
# Conditions: RAW264.7 macrophages, IL-1a HTRF, actives lie on both sides, screened at 100 nM (by protocol), cells primed 5 h with Pam3CSK4 first
# In short: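 Three distinct siRNAs per gene were tested singly at 100 nM in RAW264.7 macrophages. Following Pam3CSK4 priming and 24 hour LipidA transfection, IL-1a secretion was read by HTRF.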
row,Sequence,z-score
1,GCCUGGUUAUUAAUUUAUCTT against Dzank1,inactive: -0.724
2,GCUCCAACACCCUGUGAAUTT against Prss42,inactive: -0.437
3,GGAAGAAUGUGGGUAAAGATT against Gimap9,active: -2.01
4,GGAGAAGGAAGAGCUAAAGTT against Tpd52l1,inactive: 1.38
5,GCACUGAAAGUCUCGAAAGTT against 2410137M14Rik,inactive: 0.286
6,GCUCGAUAUUUUGAAGUCCTT against Cntd1,inactive: 0.693
7,GCCACACAAAAUUUGGCAUTT against Fbxw26,inactive: 0.796
8,GGUCAAAGUUAUGCAAUGUTT against Rp9,active: -2.02
9,GGUCAGAAGUCCUUACUGGTT against Cyp2d10,inactive: -0.328
10,GGCAGAGCAUUUUGAUUUUTT against Cstf2t,inactive: -0.0658
11,GCUGGAAAUGACACUGCCUTT against C1qtnf7,inactive: 1.45
12,GGAUACCUACCUGGACAGUTT against Dlgap4,inactive: -1.23
13,GGAGAGAGAUGCCCAAAUCTT against Zfp507,inactive: -0.362
14,CGUGAUUAUGGUCGGUGCUTT against Ube2m,inactive: -0.663
15,GCAGCGGAGGGUCAAAGAATT against Pym1,inactive: 0.783
16,CGUUGGUUGAUUAUUACCUTT against Tsc1,inactive: -1.63
17,GGAACUGUCAAACUGAUUUTT against Tlm,inactive: -1.34
18,GGCUUUUAUAGCUAAGGUUTT against Spc25,active: -2.18
19,GCGAAUGAAUUUUCCCAUATT against Fam120c,inactive: 0.817
20,GGACAAUCUUUACUUCCUATT against Vsx2,inactive: -0.864
21,GCGGACUAGCAGAGCUAUUTT against Dgkq,inactive: -0.812
22,GCAACAAUGGUAACCCUCCTT against Ctsg,inactive: 1.68
23,GGACCUACGACAUUUCCUCTT against Magi1,inactive: -0.75
24,GCUAAUAUUGUCGAUGUUATT against Ptger4,inactive: 0.384
25,GCGAUGCUCCUAAUUCUUATT against Dusp21,inactive: -1.18
26,GGUCAAUUAAGAGAAAUGUTT against Abca12,inactive: 0.28
27,GAAAUUCUUCCAGUGGAAGTT against Lrp2bp,inactive: 0.958

row,Sequence,z-score
1,GCUAGUUUUUCAGAUUUCATT against Timm22,inactive: 1.29
2,CCUAAUAAGCCAUAUGCAUTT against Alkbh8,inactive: -0.449
3,GCACAUUUAUUCAAGAACCTT against Ttn,inactive: 0.126
4,CGAACUCAUCUACUGCUAUTT against Chst11,inactive: 1.43
5,GGGUAACUAUAUCACAUACTT against Cacna1c,inactive: -0.207
6,GGAAUUAUGCUGCUUUAAUTT against Xrcc2,inactive: 1.14
7,GGUACAUGAAUUCCAAUACTT against Itgb8,inactive: 0.784
8,GCGGAGCGUAUGGAUAUGATT against Zfp619,inactive: 0.0905
9,CGAGGCUAAGAGGAAUCAGTT against Capn5,inactive: -0.314
10,GGAGUUUCCAUCACGAAGATT against Bmp4,inactive: 0.574
11,GGCACUACAACGGAACUCATT against Slco5a1,inactive: -1.82
12,GGAAAAACUCCUCUGAGGCTT against Dpcd,inactive: -1.24
13,GCACAGAUGCAAGAUAAUCTT against Hcfc2,inactive: -0.717
14,GGCUUCAUAAGAUCAAAGATT against Lca5l,active: -2.88
15,GGGAACAGUUAUUUAAACGTT against Ino80e,inactive: 0.103
16,GGUUCUGACCCUUGGUUAUTT against Vmn1r217,inactive: 0.89
17,CUUUUUCUUGCUCUUUGGATT against Olfr20,inactive: 1.15
18,GGUGGAGGUGUGAUGGAUUTT against Slamf1,active: 5.09
19,GGCAAUGGAAGUUGGAACATT against Ptch1,active: -2.15
20,GGAAAUUUUCCAUCAUGAATT against Scn8a,inactive: -0.646
21,GGGUUUAUUUGGUCAAGAUTT against Mpc2,inactive: -0.349
22,GCAAUGGACUACUGCUGCUTT against Olfr704,active: -2.26
23,GGUCUUAUGUAAGUGGUAUTT against Ociad1,active: -2.03
24,GUUCUUAUAUAGGAUUGUGTT against Xkr9,inactive: -0.782
25,GGACUUACUGCUAAGAGCUTT against Stx8,inactive: -0.31
26,GGCACGCAUAUUCAACGAATT against Copg2,inactive: -0.528

# Looked up above.
# Entry of GGAAUUAUGCUGCUUUAAUTT against Xrcc2 under z-score: inactive: 1.14
# Entry of GGUUCUGACCCUUGGUUAUTT against Vmn1r217 under z-score: inactive: 0.89
# Entry of CGAGGCUAAGAGGAAUCAGTT against Capn5 under z-score: inactive: -0.314
# Entry of GGGUAACUAUAUCACAUACTT against Cacna1c under z-score: inactive: -0.207
# Entry of GUUCUUAUAUAGGAUUGUGTT against Xkr9 under z-score: inactive: -0.782

# Source: PubChem BioAssay AID1508600 (Functional Genomics Laboratory (NCATS/FGL), 2020)
